PubChem BioAssay AID1053208, Peter MacCallum Cancer Centre | 2014
Here is a random part of about 17,000 reagents tested. 788 of all reagents (4.7%) were called active. 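Calls rest on z-score classes alone; an extra cut-off of viability at most 70% of control was not applied to them.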 Further read-outs or replicates are left out here.

Screen: 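Synthetic lethal interactions between gene loss and doxorubicin in osteosarcoma cells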 (primary screen)
System: mouse osteosarcoma cells, early-passage culture from an engineered mouse model of fibroblastic bone tumour
Knock-down reagent: siRNA pool against mouse genes, 40 nM
Timing: about 120 h (48 h before drug, then 72 h with drug)
Treatment: doxorubicin 100 nM for 72 h, roughly 30-40% inhibitory dose
Read-out: 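Viability read as ATP luminescence after 72 h of 100 nM doxorubicin or none, duplicate wells averaged, scaled to non-targeting siRNA, then expressed as robust z-scores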
Scale: viability z-score with doxorubicin: higher = more viable cells under doxorubicin; viability z-score without drug: higher = more viable cells with knock-down alone
Rule for the call: 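a pool counts as active when its viability z-score with doxorubicin is -2 or below and its z-score without drug lies between -2 and 2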

With Syne3, how do the results read?
combined z-score class: no change with or without drug; viability z-score with doxorubicin: 0.9; viability z-score without drug: 0.17; Outcome: inactive

What is on record for Or6c69b?
combined z-score class: low cell count with doxorubicin only; viability z-score with doxorubicin: -3.93; viability z-score without drug: -0.51; Outcome: active

For Msh6, how do the results read?
combined z-score class: no change with or without drug; viability z-score with doxorubicin: -0.22; viability z-score without drug: -1.18; Outcome: inactive

What did the screen give for Il17rb?
combined z-score class: no change with or without drug; viability z-score with doxorubicin: 0.22; viability z-score without drug: -1.18; Outcome: inactive

With Or51e1, what was measured?
combined z-score class: no change with or without drug; viability z-score with doxorubicin: 0.22; viability z-score without drug: 0.67; Outcome: inactive

With Dlx6, what does the deposit list?
combined z-score class: no change with or without drug; viability z-score with doxorubicin: 1.01; viability z-score without drug: -0.84; Outcome: inactive

How did the screen score 1700030K09Rik?
combined z-score class: no change with or without drug; viability z-score with doxorubicin: 0; viability z-score without drug: 0.51; Outcome: inactive

How did the screen score Pan2?
combined z-score class: no change with or without drug; viability z-score with doxorubicin: 0; viability z-score without drug: 0.67; Outcome: inactive

With Yod1, how do the results read?
combined z-score class: no change with or without drug; viability z-score with doxorubicin: -0.22; viability z-score without drug: -0.51; Outcome: inactive

Which result is listed for Or10k2?
combined z-score class: no change with or without drug; viability z-score with doxorubicin: -0.45; viability z-score without drug: -1.01; Outcome: inactive

What is on record for Dbndd1?
combined z-score class: low cell count with doxorubicin only; viability z-score with doxorubicin: -2.14; viability z-score without drug: -1.52; Outcome: active

For Ciao3, what does the deposit list?
combined z-score class: low cell count without drug only; viability z-score with doxorubicin: 0.45; viability z-score without drug: -2.19; Outcome: inactive

Called active (from the list above):
Or6c69b | combined z-score class = low cell count with doxorubicin only; viability z-score with doxorubicin = -3.93; viability z-score without drug = -0.51; Outcome = active
Dbndd1 | combined z-score class = low cell count with doxorubicin only; viability z-score with doxorubicin = -2.14; viability z-score without drug = -1.52; Outcome = active
